Source: patent US10676478B2, “7-(thiazol-5-yl) pyrrolopyrimidine compound as TLR7 agonist” (CHIA TAI TIANQING PHARMACEUTICAL GROUP CO., LTD., priority 2015, dated 2020)
At least one structure is not confirmed: it was looked up by name or label, or the drawing left a doubt.

Test system: AAV-carrying hepatitis B virus (HBV)
Experiment: In vivo pharmacodynamics assay in mouse model infected with AAV-carrying hepatitis B virus
Conditions: 20 mg/kg intragastric, once every three days, 6 weeks

CCCCOc1nc(N)c2[nH]cc(Cc3cnc(CN4CCCC4)s3)c2n1 [Example 1, 2-butoxy-7-((2-(pyrrolidin-1-ylmethyl)thiazol-5-yl)methyl)-5H-pyrrolo[3,2-d]pyrimidin-4-amine]
HBsAg copy number in plasma (efficacy compared with GS-9620) (FIG. 1): better efficacy than control Toll-like receptor 7 agonist GS-9620
HBV DNA copy number in plasma (efficacy compared with GS-9620) (FIG. 2): better efficacy than control Toll-like receptor 7 agonist GS-9620
Anti-HBsAb (hepatitis B surface antigen antibody) producing level (efficacy compared with GS-9620) (FIG. 3): better efficacy than control Toll-like receptor 7 agonist GS-9620
